Measured values reported in paper doi:10.1101/2022.08.24.503855.
Changes are numbered by the printed parent chain. In names and notes the source's numbering stands. These are yes or no findings as the source states them, for the method shown. Some results given as binding are weak or reduced against the parent protein; the word gives no strength.

Assays:
[1] = target: hnRNPDL-2 D259H (LGMDD3-associated variant) (human) (UniProt O14979); test: ultracentrifugation on a glycerol cushion + negative-stain TEM
[2] = target: hnRNPDL-2 D259N (LGMDD3-associated variant) (human) (UniProt O14979); test: as above
[3] = target: hnRNPDL-3 (human heterogeneous ribonucleoprotein D-like, isoform 3) (human) (UniProt O14979); test: SEC
[4] = target: hnRNPDL-3 (human heterogeneous ribonucleoprotein D-like, isoform 3) (human) (UniProt O14979); test: Th-T fluorescence + negative-stain TEM

B1: hnRNPDL-2 D259H (LGMDD3-associated variant) (protein, UniProt O14979-2 1-301)
chain: MEDMNEYSNIEEFAEGSKINASKNQQDDGKMFIGGLSWDTSKKDLTEYLSRFGEVVDCTIKTDPVTGRSRGFGFVLFKDAASVDKVLELKEHKLDGKLIDPKRAKALKGKEPPKKVFVGGLSPDTSEEQIKEYFGAFGEIENIELPMDTKTNERRGFCFITYTDEEPVKKLLESRYHQIGSGKCEIKVAQPKEVYRQQQQQQKGGRGAAAGGRGGTRGRGRGQGQNWNQGFNNYYDQGYGNYNSAYGGDQNYSGYGGYHYTGYNYGNYGYGQGYADYSGQQSTYGKASRGGGNHQNNYQPY
B1 was tested, and the binding [1] was “binds weakly”.

B2: hnRNPDL-2 D259N (LGMDD3-associated variant) (protein, UniProt O14979-2 1-301)
chain: B1 chain with H259N
For B2, the binding [2] was “binds weakly”.

B3: hnRNPDL-3 (human heterogeneous ribonucleoprotein D-like, isoform 3) (protein, UniProt O14979-3 1-244)
chain: MEDMNEYSNIEEFAEGSKINASKNQQDDGKMFIGGLSWDTSKKDLTEYLSRFGEVVDCTIKTDPVTGRSRGFGFVLFKDAASVDKVLELKEHKLDGKLIDPKRAKALKGKEPPKKVFVGGLSPDTSEEQIKEYFGAFGEIENIELPMDTKTNERRGFCFITYTDEEPVKKLLESRYHQIGSGKCEIKVAQPKEVYRQQQQQQKGGRGAAAGGRGGTRGRGRGQQSTYGKASRGGGNHQNNYQPY
With B3 the binding [3] was “no binding” and the binding [4] was “no binding (tested: 50 µM)”.
